Assay results taken from PubChem BioAssay AID330 (DTP/NCI, 2004).
The list is a part of this screen's results and no random one: it is rich in T/C values a quarter to a half above the control, in often repeated tests (any T/C) and in doses without a T/C. Further doses and runs are listed elsewhere. T/C: endpoint of the treated group in % of that of the vehicle group. Some entries give survivors of the animals treated and no T/C: the source holds a T/C of zero for them, seemingly a mark for toxic or unscored doses. Some survivor counts are full or nearly so, which does not show that the dose was tolerated: survival well below the control is almost never listed, so the zero probably covers shortened survival too. Survivors were counted at the toxicity check, usually on the fifth day, unless a day is given; later deaths do not show. Schedule codes are those of the source, read here as Q, the interval in days (D) or hours (H), X, the number of doses. Some entries were tested several times; the results are listed from low to high. Where survival is the endpoint, this PubChem deposit counts one and a half times the control or more as active, and values a quarter to a half above the control carry no call in these data; other NCI protocols may use other cut-offs. Additions like (4×) give the number of equal values in this list. Some T/C values carry the count of animals alive at the toxicity check (mostly the fifth day); without a count, all were alive then.

System: P388 leukemia ip, CD2F1 mice, survival T/C
Test: NCI In Vivo Anticancer Drug Screen. Data for tumor model P388 Leukemia (intraperitoneal) in CD2F1 (CDF1) mice
Conditions: T/C endpoint: median survival time, higher T/C = longer survival
[1] = dose: 50.0 mg/kg/injection, schedule: Q01DX005 (ip), vehicle: Klucel (hydroxypropylcellulose) (HPC)
[2] = dose: 100.0 mg/kg/injection, schedule: Q01DX005 (ip), vehicle: Klucel (hydroxypropylcellulose) (HPC)
[3] = dose: 200.0 mg/kg/injection, schedule: Q01DX005 (ip), vehicle: Klucel (hydroxypropylcellulose) (HPC)
[4] = dose: 50.0 mg/kg/injection, schedule: Q01DX009 (ip), vehicle: Klucel (hydroxypropylcellulose) (HPC)
[5] = dose: 100.0 mg/kg/injection, schedule: Q01DX009 (ip), vehicle: Klucel (hydroxypropylcellulose) (HPC)
[6] = dose: 200.0 mg/kg/injection, schedule: Q01DX009 (ip), vehicle: Klucel (hydroxypropylcellulose) (HPC)
[7] = dose: 200.0 mg/kg/injection, schedule: Q01DX009 (ip), vehicle: saline
[8] = dose: 200.0 mg/kg/injection, schedule: Q01DX005 (ip), vehicle: saline with Tween-80
[9] = dose: 100.0 mg/kg/injection, schedule: Q01DX005 (ip), vehicle: saline with Tween-80
[10] = dose: 100.0 mg/kg/injection, schedule: Q01DX009 (ip), vehicle: saline
[11] = dose: 15.0 mg/kg/injection, schedule: Q01DX005 (ip), vehicle: Klucel (hydroxypropylcellulose) (HPC)
[12] = dose: 30.0 mg/kg/injection, schedule: Q01DX005 (ip), vehicle: Klucel (hydroxypropylcellulose) (HPC)
[13] = dose: 60.0 mg/kg/injection, schedule: Q01DX005 (ip), vehicle: Klucel (hydroxypropylcellulose) (HPC)
[14] = dose: 240.0 mg/kg/injection, schedule: Q01DX005 (ip), vehicle: Klucel (hydroxypropylcellulose) (HPC)

What does the source list for `C[CH2][Sn]([Cl])([CH2]C)[O][Sn]([CH2]C)([CH2]C)[O][Sn]([Cl])([CH2]C)[CH2]C`?
T/C (dose: 3.12 mg/kg/injection, schedule: Q01DX005 (ip), vehicle: Klucel (hydroxypropylcellulose) (HPC)): 125 % of control; T/C (dose: 12.5 mg/kg/injection, schedule: Q01DX005 (ip), vehicle: Klucel (hydroxypropylcellulose) (HPC)): 126 % of control [5 of 6 alive]; survivor count (dose: 25.0 mg/kg/injection, schedule: Q01DX005 (ip), vehicle: Klucel (hydroxypropylcellulose) (HPC)): 0 of 6; survivor count [1]: 0 of 6; survivor count [2]: 0 of 6; survivor count [3]: 0 of 6

With `CCOC(=O)COc1cc2c(cc1C(C)c1ccc(OCc3ccccc3)c(OC)c1)OCO2` (stereo not drawn) as the molecule, how does the survivor count [3] read?
The survivor count was 6 of 6.

Which T/C (dose: 25.0 mg/kg/injection, schedule: Q01DX009 (ip), vehicle: water) does the source give for `COc1cc2c[n+](C)c3ccccc3c2cc1OC` here?
The T/C was 125 % of control.

And the T/C (dose: 50.0 mg/kg/injection, schedule: Q01DX009 (ip), vehicle: water)?
The T/C was 131 and 135 % of control.

What about the T/C (dose: 100.0 mg/kg/injection, schedule: Q01DX009 (ip), vehicle: water) of the same molecule?
The T/C was 128 % of control.

What about the survivor count (dose: 200.0 mg/kg/injection, schedule: Q01DX009 (ip), vehicle: water) of the same molecule?
Its survivor count is 0 of 6 and 1 of 6.

Which results are given for `CS(=O)(=O)N1CC=CCS1=O` (stereo not drawn)?
survivor count [4]: 0 of 6; survivor count [5]: 0 of 6; survivor count [6]: 0 of 6

Which survivor count [7] does the source give for `Nc1nc[nH]c1-c1noc(=O)[nH]1` here?
The survivor count was 0 of 6.

`N#C/C1=C(\C#N)CCC2(C#N)C3C=CC(O3)C2(C#N)CC1` (stereo not drawn) was tested. Which survivor count (dose: 25.0 mg/kg/injection, schedule: Q01DX009 (ip), vehicle: Klucel (hydroxypropylcellulose) (HPC)) did it give?
The survivor count was 2 of 6.

And the survivor count [4]?
Its survivor count is 0 of 6.

What about the survivor count [5] of the same molecule?
Its survivor count is 0 of 6.

What does the source list for `CC1/C(=N\N=C(N)N)c2ccccc2/C1=N/N=C(N)N` (stereo not drawn)?
survivor count (dose: 200.0 mg/kg/injection, schedule: Q01DX001 (ip), vehicle: saline with Tween-80): 0 of 6; survivor count (dose: 400.0 mg/kg/injection, schedule: Q01DX001 (ip), vehicle: saline with Tween-80): 0 of 6

How did the survivor count (dose: 0.5 mg/kg/injection, schedule: Q01DX009 (ip), vehicle: acid diluted with saline) turn out when `CN1CCc2cc3c(c4c2C1C(O)c1ccccc1-4)OCO3` (stereo not drawn) was run?
Its survivor count is 0 of 6 and 6 of 6.

And the survivor count (dose: 1.0 mg/kg/injection, schedule: Q01DX009 (ip), vehicle: acid diluted with saline)?
Its survivor count is 6 of 6.

For `c1ccc2c(c1)C[n+]1ccc3ccccc3c1-c1c3ccccc3cc[n+]1C2`, which survivor count (dose: 50.0 mg/kg/injection, schedule: Q01DX001 (ip), vehicle: saline) is on record?
Its survivor count is 5 of 6.

For `[Cl][Ge]([c]1ccccc1)[c]1ccccc1.[Cl][Ge]([c]1ccccc1)[c]1ccccc1`, which survivor count [1] is on record?
Its survivor count is 0 of 6.

What about the survivor count [2] of the same molecule?
The survivor count was 0 of 6.

What about the survivor count [3] of the same molecule?
Its survivor count is 0 of 6.

With `C=CCNC(=S)N/N=C(\CCC)c1ccccn1` as the molecule, how does the survivor count [8] read?
The survivor count was 0 of 6.

How did the survivor count [9] turn out when `NS(=O)(=O)c1cc(S(=O)(=O)Cl)ccc1Cl` was run?
Its survivor count is 3 of 6.

What about the survivor count [8] of the same molecule?
The survivor count was 0 of 6.

For `CNc1ncnc2ccc(Cl)cc12`, which survivor count [6] is on record?
The survivor count was 2 of 6.

`CN(CCOc1c(I)cc(I)cc1I)CC(O)C(O)C(O)C(O)CO` (stereo not drawn) was tested. Which survivor count [5] did it give?
Its survivor count is 5 of 6.

And the survivor count [6]?
Its survivor count is 0 of 6.

`CC(C)C1CC2CCC3C(C)(C(=O)O)CCCC3(C)C2CC1CO` (stereo not drawn) was tested. Which survivor count (dose: 400.0 mg/kg/injection, schedule: Q04DX003 (ip), vehicle: saline with Tween-80) did it give?
Its survivor count is 6 of 6.

Which survivor count [8] does the source give for `CCC(=O)NC1=CCC(C(C)(C)C)CC1` (stereo not drawn) here?
The survivor count was 0 of 6.

For `CCN(CC)CC(C)Nc1cc(C)nc2c1ccc1c2ccc2c(NC(C)CN(CC)CC)cc(C)nc21` (stereo not drawn), which survivor count (dose: 100.0 mg/kg/injection, schedule: Q01DX009 (ip), vehicle: distilled water + Tween-80) is on record?
The survivor count was 0 of 6.

With `C[n+]1ccc(CCNC2CCC(N=NC3CCC([N+](=O)[O-])CC3)CC2)cc1` (stereo not drawn) as the molecule, how does the survivor count [10] read?
Its survivor count is 3 of 6.

How did the T/C [11] turn out when `NC(=O)C1=CC2C3C=CC2(O)C(=O)OC3O1` (stereo not drawn) was run?
Its T/C is 126 % of control (2×).

What about the T/C [12] of the same molecule?
The T/C was 145 % of control [5 of 6 alive].

And the survivor count [13]?
Its survivor count is 0 of 6.

`CCOC(=O)Nc1cc(NC(C)/C(=N/O)c2ccccc2)c([N+](=O)[O-])c(N)n1` (stereo not drawn) was tested. Which T/C [12] did it give?
The T/C was 145 % of control.

What about the survivor count (dose: 480.0 mg/kg/injection, schedule: Q01DX005 (ip), vehicle: Klucel (hydroxypropylcellulose) (HPC)) of the same molecule?
The survivor count was 4 of 6.

For `C[N+](C)(C)[N-]C(=N)c1ccccc1`, which survivor count (dose: 200.0 mg/kg/injection, schedule: Q01DX001 (ip), vehicle: suspension in saline) is on record?
The survivor count was 1 of 6.

What about the survivor count (dose: 400.0 mg/kg/injection, schedule: Q01DX001 (ip), vehicle: suspension in saline) of the same molecule?
The survivor count was 0 of 6.

How did the survivor count (dose: 400.0 mg/kg/injection, schedule: Q04DX003 (ip), vehicle: saline) turn out when `Cc1cc(C)cc(C(N)=O)c1` was run?
Its survivor count is 3 of 6.

For `Cc1oc2c(c(=O)c1C)C1CCC(C2)N1C` (stereo not drawn), which survivor count [3] is on record?
The survivor count was 0 of 6.

`Nc1cccc2nccn12` was tested. Which survivor count [10] did it give?
Its survivor count is 0 of 6 and 1 of 6.

And the survivor count [7]?
The survivor count was 0 of 6.

How did the survivor count [14] turn out when `O=c1cccc2c3ccccc3ccn12` was run?
Its survivor count is 5 of 6.

With `CCCCCCCCCCCCCCCCCC(=O)NC(Cc1ccc(N(CCCl)CCCl)cc1)C(=O)O` (stereo not drawn) as the molecule, how does the T/C (dose: 1.88 mg/kg/injection, schedule: Q03HX008 (ip), vehicle: saline) read?
The T/C was 130 % of control.

And the survivor count (dose: 30.0 mg/kg/injection, schedule: Q03HX008 (ip), vehicle: saline)?
Its survivor count is 9 of 10.

And the survivor count (dose: 60.0 mg/kg/injection, schedule: Q03HX008 (ip), vehicle: saline)?
Its survivor count is 0 of 10.

For `Cc1cc(C(=O)NN)no1`, which survivor count [7] is on record?
Its survivor count is 0 of 6.

`CCC(=O)/C=C/c1ccc(N(C)C)cc1` was tested. Which survivor count (dose: 400.0 mg/kg/injection, schedule: Q04DX003 (ip), vehicle: Klucel (hydroxypropylcellulose) (HPC)) did it give?
Its survivor count is 5 of 6.

How did the T/C [11] turn out when `CC1(C)S(=O)(=O)OCCOS1(=O)=O` was run?
Its T/C is 146 % of control.

And the T/C [12]?
Its T/C is 131, 135, 138 % of control.

And the survivor count [13]?
Its survivor count is 3 of 6.

What about the survivor count (dose: 120.0 mg/kg/injection, schedule: Q01DX005 (ip), vehicle: Klucel (hydroxypropylcellulose) (HPC)) of the same molecule?
Its survivor count is 0 of 6.

And the survivor count [14]?
Its survivor count is 0 of 6.

For `O=C1C=CC(=O)N1C(=O)NCNC(=O)N1C(=O)C=CC1=O`, which T/C [9] is on record?
Its T/C is 130 % of control.

What about the survivor count [8] of the same molecule?
Its survivor count is 0 of 6, 2 of 5, 3 of 5.

Which survivor count (dose: 50.0 mg/kg/injection, schedule: Q01DX009 (ip), vehicle: gum acacia) does the source give for `CC(Oc1ccccc1)C(=O)N=c1scc(-c2ccc(Br)cc2)n1-c1cccc2ccccc12` (stereo not drawn) here?
The survivor count was 3 of 3.

`C=CCOC(=O)OCCCO` was tested. Which survivor count (dose: 240.0 mg/kg/injection, schedule: Q01DX005 (ip), vehicle: saline) did it give?
The survivor count was 2 of 6.

How did the survivor count (dose: 160.0 mg/kg/injection, schedule: Q01DX009 (ip), vehicle: Klucel (hydroxypropylcellulose) (HPC)) turn out when `COc1cc2c(cc1OC)C(Cc1ccc(OC)c(Oc3ccc(CC4c5cc(OC)c(OC)c(O)c5CCN4C)cc3)c1)N(C)CC2` (stereo not drawn) was run?
The survivor count was 0 of 6.

For `O=c1[nH]c(=S)[nH]nc1/C=C/c1cccc(I)c1`, which survivor count (dose: 100.0 mg/kg/injection, schedule: Q04DX002 (ip), vehicle: saline) is on record?
Its survivor count is 3 of 6.

What about the survivor count (dose: 400.0 mg/kg/injection, schedule: Q04DX002 (ip), vehicle: saline) of the same molecule?
The survivor count was 4 of 6.

How did the survivor count (dose: 20.0 mg/kg/injection, schedule: Q01DX009 (ip), vehicle: Klucel (hydroxypropylcellulose) (HPC)) turn out when `CC1(C)CC[C@H](C2=CC(=O)c3c(O)ccc(O)c3C2=O)O1` was run?
Its survivor count is 4 of 6.

With `Cc1[nH]c2ccc(N(C)C)cc2c(=O)c1CN(C)C` as the molecule, how does the survivor count [6] read?
Its survivor count is 0 of 6.

How did the survivor count (dose: 50.0 mg/kg/injection, schedule: Q01DX009 (ip), vehicle: saline) turn out when `CCCCCCCCC[N+]1(CC)CCCC1` was run?
The survivor count was 3 of 6.

What about the survivor count [10] of the same molecule?
The survivor count was 0 of 6.

What about the survivor count [7] of the same molecule?
Its survivor count is 0 of 6.

With `CCOc1ccc(C(C)c2cc3c(cc2OC)OCO3)cc1C` (stereo not drawn) as the molecule, how does the T/C [3] read?
The T/C was 144 % of control.

Which survivor count [3] does the source give for `CN(C)C(=O)Sc1nnc(C(C)(C)C)o1` here?
Its survivor count is 3 of 5.

`FC(F)(F)C1(C(F)(F)F)[O][Sb]([c]2ccc(Cl)cc2)([c]2ccc(Cl)cc2)([c]2ccc(Cl)cc2)[O]1` was tested. Which survivor count [6] did it give?
Its survivor count is 1 of 6.
